No constants are given. Whether binding was seen depends on the method and setting. For some assays here: Binding calls can cover weak binding; strength is not graded here. For some assays here: In cells and extracts the contact can be indirect.
Experiments:
[1] = target: GST-AFDN RA1/2 (dual RA domains, residues 6-370) (mouse) (UniProt Q9QZQ1); assay: pull-down; GST-tagged RA/RBD domains purified from bacteria on glutathione beads mixed with lysates of cells expressing GTPases; beads washed 5X; anti-GFP blot; only the target purified
[2] = target: GST-BRAF RBD (UniProt P15056); assay: as above
[3] = target: EGFP-tagged full-length SCRIB (human) (UniProt Q14160); assay: co-IP; co-transfected cells; anti-GFP IP, anti-FLAG blot (Fig. 2i, j)
[4] = target: GST-AFDN FHA domain construct ending at residue 590 (-ENR) (mouse) (UniProt Q9QZQ1); assay: pull-down; in vitro mixing: purified SCRIB PDZ1 added at 50 μM to glutathione beads bound to GST-fused AFDN FHA fragments; both purified
[5] = target: AFDNΔex9 (AFDN without residues 393-407 of the alternatively spliced exon 9) (mouse) (UniProt Q9QZQ1); assay: co-IP; IP of AFDNΔex9 following its co-transfection with SCRIB (Supplementary Fig. 3b); antibodies not told
[6] = target: GST fusion of the AFDN fragment encompassing the FHA domain (mouse) (UniProt Q9QZQ1); assay: pull-down; GST fusions purified from E. coli on glutathione beads mixed with lysates of mammalian cells expressing (or holding endogenous) SCRIB or AFDN; TX100 buffer with 10% glycerol and 1% NP-40; only the target purified
[7] = target: GST-AFDN FHA domain construct ending at residue 590 (-ENR) (mouse) (UniProt Q9QZQ1); assay: as above
[8] = target: GST-AFDN FHA domain construct ending at residue 599 (-PEL) (mouse) (UniProt Q9QZQ1); assay: as above
[9] = target: GST-AFDN FHA domain construct ending at residue 610 (-RES) (mouse) (UniProt Q9QZQ1); assay: as above

Protein sequences, listed by entry. Tags and fused reporters are not part of them. Lines headed by an entry give the natural chain unless they say otherwise; changes in a name come on top. Residues count along the entry.
UniProt Q9QZQ1, residues 6-370: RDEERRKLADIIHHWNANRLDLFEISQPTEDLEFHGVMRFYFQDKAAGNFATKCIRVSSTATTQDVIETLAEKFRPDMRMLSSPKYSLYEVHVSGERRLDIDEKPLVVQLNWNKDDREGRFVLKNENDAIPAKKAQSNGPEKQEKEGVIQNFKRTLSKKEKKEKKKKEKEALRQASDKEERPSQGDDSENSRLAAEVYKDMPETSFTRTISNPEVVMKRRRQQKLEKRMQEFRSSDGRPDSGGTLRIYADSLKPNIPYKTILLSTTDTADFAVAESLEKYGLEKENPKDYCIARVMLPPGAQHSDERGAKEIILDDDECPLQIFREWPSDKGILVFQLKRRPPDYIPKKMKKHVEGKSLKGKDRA
UniProt P15056, residues 155-227: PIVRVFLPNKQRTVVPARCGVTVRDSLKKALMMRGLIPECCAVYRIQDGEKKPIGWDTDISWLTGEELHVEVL
UniProt Q14160: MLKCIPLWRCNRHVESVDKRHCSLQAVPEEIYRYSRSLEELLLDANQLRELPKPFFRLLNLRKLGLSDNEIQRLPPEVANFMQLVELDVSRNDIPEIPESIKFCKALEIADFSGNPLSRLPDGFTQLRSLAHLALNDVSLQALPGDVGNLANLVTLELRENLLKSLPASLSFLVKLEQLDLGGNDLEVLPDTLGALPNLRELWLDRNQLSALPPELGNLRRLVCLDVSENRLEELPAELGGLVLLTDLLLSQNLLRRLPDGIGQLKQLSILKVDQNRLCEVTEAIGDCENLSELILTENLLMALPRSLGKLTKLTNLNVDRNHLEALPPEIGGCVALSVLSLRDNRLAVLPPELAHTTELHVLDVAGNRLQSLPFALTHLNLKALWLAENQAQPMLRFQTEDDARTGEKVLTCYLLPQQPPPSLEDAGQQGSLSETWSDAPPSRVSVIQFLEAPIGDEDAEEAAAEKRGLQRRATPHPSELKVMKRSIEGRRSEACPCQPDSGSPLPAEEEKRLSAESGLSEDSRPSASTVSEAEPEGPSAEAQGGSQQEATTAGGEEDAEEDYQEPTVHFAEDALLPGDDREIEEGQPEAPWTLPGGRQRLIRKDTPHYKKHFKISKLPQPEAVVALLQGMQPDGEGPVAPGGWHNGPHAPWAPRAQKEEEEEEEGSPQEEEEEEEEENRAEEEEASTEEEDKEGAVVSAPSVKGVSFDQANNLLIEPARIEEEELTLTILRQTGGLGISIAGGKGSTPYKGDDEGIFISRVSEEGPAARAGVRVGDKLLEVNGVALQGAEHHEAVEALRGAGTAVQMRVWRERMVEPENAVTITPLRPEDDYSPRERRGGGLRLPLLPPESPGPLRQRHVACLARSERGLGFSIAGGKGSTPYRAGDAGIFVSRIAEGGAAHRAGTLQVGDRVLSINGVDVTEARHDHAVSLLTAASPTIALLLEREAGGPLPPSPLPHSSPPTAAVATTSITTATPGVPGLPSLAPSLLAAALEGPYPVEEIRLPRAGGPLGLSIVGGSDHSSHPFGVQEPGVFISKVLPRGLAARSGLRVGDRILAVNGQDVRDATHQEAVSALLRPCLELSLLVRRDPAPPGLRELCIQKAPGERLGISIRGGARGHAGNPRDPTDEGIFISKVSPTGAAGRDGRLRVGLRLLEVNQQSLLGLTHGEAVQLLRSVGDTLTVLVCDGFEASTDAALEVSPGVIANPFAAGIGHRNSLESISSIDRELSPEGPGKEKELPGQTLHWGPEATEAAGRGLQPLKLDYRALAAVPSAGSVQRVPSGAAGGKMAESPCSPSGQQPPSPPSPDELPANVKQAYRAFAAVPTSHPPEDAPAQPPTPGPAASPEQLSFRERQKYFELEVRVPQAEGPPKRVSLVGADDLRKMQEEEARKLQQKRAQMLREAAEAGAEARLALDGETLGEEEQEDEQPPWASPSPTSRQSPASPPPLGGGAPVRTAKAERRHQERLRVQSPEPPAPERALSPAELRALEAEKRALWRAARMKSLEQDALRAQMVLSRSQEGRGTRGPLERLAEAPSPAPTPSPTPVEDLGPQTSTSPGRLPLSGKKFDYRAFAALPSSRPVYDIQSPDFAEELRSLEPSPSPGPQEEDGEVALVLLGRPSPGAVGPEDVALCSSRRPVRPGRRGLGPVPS
UniProt Q96HU8: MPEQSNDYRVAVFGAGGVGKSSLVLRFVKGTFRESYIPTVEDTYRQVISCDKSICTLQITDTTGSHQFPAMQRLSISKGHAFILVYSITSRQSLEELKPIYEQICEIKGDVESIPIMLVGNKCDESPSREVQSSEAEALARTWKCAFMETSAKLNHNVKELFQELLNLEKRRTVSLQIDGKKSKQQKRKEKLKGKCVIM
UniProt P62834: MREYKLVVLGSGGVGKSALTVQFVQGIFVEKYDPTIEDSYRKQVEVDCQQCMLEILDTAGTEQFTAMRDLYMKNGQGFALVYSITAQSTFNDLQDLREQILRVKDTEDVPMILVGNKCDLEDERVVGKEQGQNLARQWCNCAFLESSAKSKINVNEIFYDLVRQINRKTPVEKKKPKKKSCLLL

Question: Which binding [1] does the source give for “EGFP-DIRAS2 with activating mutation (from UniProt Q96HU8)” here?
Answer: no binding

Question: What about the binding [2] of the same substance?
Answer: no binding

Question: Which binding [3] does the source give for “AFDNΔFHA (full-length AFDN missing residues 370-600) (from UniProt Q9QZQ1)” here?
Answer: no binding

Question: With “purified SCRIB PDZ1 domain (718-820) (from UniProt Q14160 718-820) (domain or fragment)” as the substance, how does the binding [4] read?
Answer: binds

Question: Which results are given for “full-length recombinant SCRIB expressed in mammalian cells (tag not told) (from UniProt Q14160 1-1655)”?
Answer: binding [5]: binds; binding [6]: binds; binding [7]: binds; binding [8]: binds; binding [9]: binds

Question: “endogenous SCRIB in the lysates of Fig. 2f (from UniProt Q14160 1-1655)” was tested. Which binding [6] did it give?
Answer: binds

Question: Which binding [1] does the source give for “EGFP-RAP1A with activating mutation (from UniProt P62834)” here?
Answer: binds

From article PMC9355967
